{
  "source": "patent US20080299548A1",
  "key": {"[1]": {"target": "T1, Myc-tagged ECAT15-2 (mouse) (UniProt Q9CWH0)", "T1 sequence": "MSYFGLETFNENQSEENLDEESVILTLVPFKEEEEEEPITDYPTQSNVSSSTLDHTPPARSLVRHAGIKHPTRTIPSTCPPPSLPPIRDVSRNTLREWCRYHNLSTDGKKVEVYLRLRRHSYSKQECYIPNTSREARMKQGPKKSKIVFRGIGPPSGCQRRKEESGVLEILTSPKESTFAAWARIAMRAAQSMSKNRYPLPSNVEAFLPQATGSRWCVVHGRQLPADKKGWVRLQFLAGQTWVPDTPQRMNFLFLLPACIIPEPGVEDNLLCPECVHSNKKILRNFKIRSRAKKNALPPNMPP", "test": "co-immunoprecipitation and Western blot, FIG. 5 left"}, "[2]": {"target": "T2, Myc-tagged ECAT15-1 (mouse) (UniProt Q8CCG4)", "T2 sequence": "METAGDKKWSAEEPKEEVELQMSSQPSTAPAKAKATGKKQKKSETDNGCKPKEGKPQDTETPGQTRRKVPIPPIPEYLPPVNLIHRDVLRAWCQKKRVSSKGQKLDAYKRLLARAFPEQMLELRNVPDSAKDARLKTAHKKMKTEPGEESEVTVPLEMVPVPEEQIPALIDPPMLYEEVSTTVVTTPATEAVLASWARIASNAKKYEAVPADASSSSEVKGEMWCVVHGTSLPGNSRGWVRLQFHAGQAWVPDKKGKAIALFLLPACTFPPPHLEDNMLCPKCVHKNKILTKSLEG", "test": "co-immunoprecipitation and Western blot, FIG. 5 middle"}, "[3]": {"target": "T1, Myc-tagged ECAT15-2 (mouse)", "test": "co-immunoprecipitation with anti-Myc (9E10) from transfected MG1.19 ES cells, Western blot"}, "[4]": {"target": "T2, Myc-tagged ECAT15-1 (mouse)", "test": "co-immunoprecipitation with anti-Myc (9E10) from transfected MG1.19 ES cells, Western blot"}, "[5]": {"target": "T3, mouse ECAT15-2 (endogenous, MG1.19 ES cells) (mouse) (UniProt Q9CWH0)", "T3 sequence": "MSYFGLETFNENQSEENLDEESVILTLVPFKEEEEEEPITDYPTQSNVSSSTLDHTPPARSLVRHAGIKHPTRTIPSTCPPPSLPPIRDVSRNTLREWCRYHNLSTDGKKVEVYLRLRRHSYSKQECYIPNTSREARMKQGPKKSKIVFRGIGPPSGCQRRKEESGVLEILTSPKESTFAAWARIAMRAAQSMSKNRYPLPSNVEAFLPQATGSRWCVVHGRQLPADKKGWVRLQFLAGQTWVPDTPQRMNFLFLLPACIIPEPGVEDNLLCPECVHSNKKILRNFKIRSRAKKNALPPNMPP", "test": "co-immunoprecipitation of endogenous proteins from MG1.19 ES cells with anti-ECAT15-2 serum, Western blot"}, "[6]": {"target": "T3, mouse ECAT15-2 (endogenous, MG1.19 ES cells) (mouse)", "test": "co-immunoprecipitation of endogenous proteins with anti-ECAT15-1 and anti-ECAT15-2 antibodies, FIG. 6"}, "[7]": {"target": "T1, Myc-tagged ECAT15-2 (mouse)", "test": "co-immunoprecipitation and Western blot, FIG. 5 right"}, "[8]": {"target": "T4, mouse ECAT15-1 (endogenous, MG1.19 ES cells) (mouse) (UniProt Q8CCG4)", "T4 sequence": "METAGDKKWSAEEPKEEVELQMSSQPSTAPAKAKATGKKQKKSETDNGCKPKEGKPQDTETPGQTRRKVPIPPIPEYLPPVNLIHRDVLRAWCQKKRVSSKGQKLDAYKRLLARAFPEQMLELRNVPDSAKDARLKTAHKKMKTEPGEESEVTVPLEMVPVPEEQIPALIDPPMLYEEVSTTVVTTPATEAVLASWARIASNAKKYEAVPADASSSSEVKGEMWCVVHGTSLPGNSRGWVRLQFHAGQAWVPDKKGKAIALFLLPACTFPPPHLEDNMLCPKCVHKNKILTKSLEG", "test": "co-immunoprecipitation of endogenous proteins from MG1.19 ES cells with anti-ECAT15-1 serum, Western blot"}},
  "note": "No constants are given. Whether binding was seen depends on the method and setting. In cells and extracts the contact can be indirect. Some entries that bind do so weakly or less than the wild type. For part of these data: Tags and fused reporters may be left off the sequences shown.",
  "data": [
    {"binder": "Flag-tagged ECAT15-1 (protein, not shown: small tags and cut ends) METAGDKKWSAEEPKEEVELQMSSQPSTAPAKAKATGKKQKKSETDNGCKPKEGKPQDTETPGQTRRKVPIPPIPEYLPPVNLIHRDVLRAWCQKKRVSSKGQKLDAYKRLLARAFPEQMLELRNVPDSAKDARLKTAHKKMKTEPGEESEVTVPLEMVPVPEEQIPALIDPPMLYEEVSTTVVTTPATEAVLASWARIASNAKKYEAVPADASSSSEVKGEMWCVVHGTSLPGNSRGWVRLQFHAGQAWVPDKKGKAIALFLLPACTFPPPHLEDNMLCPKCVHKNKILTKSLEG", "values": [
      {"measurement": "binding", "setting": "[1]", "value": "binds"},
      {"measurement": "binding", "setting": "[2]", "value": "binds"},
      {"measurement": "binding", "setting": "[3]", "value": "binds"},
      {"measurement": "binding", "setting": "[4]", "value": "binds"}
    ]},
    {"binder": "mouse ECAT15-1 (endogenous, MG1.19 ES cells) (protein) METAGDKKWSAEEPKEEVELQMSSQPSTAPAKAKATGKKQKKSETDNGCKPKEGKPQDTETPGQTRRKVPIPPIPEYLPPVNLIHRDVLRAWCQKKRVSSKGQKLDAYKRLLARAFPEQMLELRNVPDSAKDARLKTAHKKMKTEPGEESEVTVPLEMVPVPEEQIPALIDPPMLYEEVSTTVVTTPATEAVLASWARIASNAKKYEAVPADASSSSEVKGEMWCVVHGTSLPGNSRGWVRLQFHAGQAWVPDKKGKAIALFLLPACTFPPPHLEDNMLCPKCVHKNKILTKSLEG", "values": [
      {"measurement": "binding", "setting": "[5]", "value": "binds"},
      {"measurement": "binding", "setting": "[6]", "value": "binds"}
    ]},
    {"binder": "Flag-tagged ECAT15-2 (protein, not shown: small tags and cut ends) MSYFGLETFNENQSEENLDEESVILTLVPFKEEEEEEPITDYPTQSNVSSSTLDHTPPARSLVRHAGIKHPTRTIPSTCPPPSLPPIRDVSRNTLREWCRYHNLSTDGKKVEVYLRLRRHSYSKQECYIPNTSREARMKQGPKKSKIVFRGIGPPSGCQRRKEESGVLEILTSPKESTFAAWARIAMRAAQSMSKNRYPLPSNVEAFLPQATGSRWCVVHGRQLPADKKGWVRLQFLAGQTWVPDTPQRMNFLFLLPACIIPEPGVEDNLLCPECVHSNKKILRNFKIRSRAKKNALPPNMPP", "values": [
      {"measurement": "binding", "setting": "[7]", "value": "binds"},
      {"measurement": "binding", "setting": "[3]", "value": "binds"}
    ]},
    {"binder": "mouse ECAT15-2 (endogenous, MG1.19 ES cells) (protein) MSYFGLETFNENQSEENLDEESVILTLVPFKEEEEEEPITDYPTQSNVSSSTLDHTPPARSLVRHAGIKHPTRTIPSTCPPPSLPPIRDVSRNTLREWCRYHNLSTDGKKVEVYLRLRRHSYSKQECYIPNTSREARMKQGPKKSKIVFRGIGPPSGCQRRKEESGVLEILTSPKESTFAAWARIAMRAAQSMSKNRYPLPSNVEAFLPQATGSRWCVVHGRQLPADKKGWVRLQFLAGQTWVPDTPQRMNFLFLLPACIIPEPGVEDNLLCPECVHSNKKILRNFKIRSRAKKNALPPNMPP", "values": [
      {"measurement": "binding", "setting": "[8]", "value": "binds"}
    ]}
  ]
}
